# Some of these results come from one statement about several compounds together.
# Tested on: B. burgdorferi strain B31
# Assay: Blood cultures for spirochetes after infection of immunized mice
# Format: in vivo
# Conditions: immunized C3H/HeJ mice, blood 7 days post infection with 10^4 Borrelia i.d.
# Experimental: Mice were immunized with recombinant DbpA (SEQ ID 1), P2 (SEQ ID 3), P4 (SEQ ID 5), P5 (SEQ ID 6), P4/P5 (SEQ ID 5/SEQ ID 6), P9 (SEQ ID 10), or the corresponding lysine modified counterparts (P2 Mod, P4 Mod, P5 Mod or P9 Mod) using the immunization schedule established by Hanson (11). Briefly, mice were immunized with 20 μg of protein or peptide in complete Freund's adjuvant (CFA) (Week 1), boosted at week 4 with the same dose in incomplete Freund's adjuvant (IFA) and infected at week 6.
# Low-passage B. burgdorferi strain B31 (passage 5) was used in this study and cultured in BSK II (Barbour-Stoenner-Kelly) medium at 34° C. (22). Bacterial cultures were incubated in CO2-enriched atmosphere in a GasPak chamber (BBL, Baltimore, Md.) containing BBL GasPak Plus envelopes and a GasPak anaerobic indicator (Beckton dickinson, Cockeysville, Md.) until the cells reached log phase. Bacterial counts were determined using dark field microscopy and a Petroff-Hausser chamber.
# Mice (15 mice/group) were anesthetized with Metofane (methoxyflurane; Pitman-Moore, Mundelein, Ill.) and 10 mice/ group were infected i.d. at the base of the tail with 10^4 Borrelia in 100 μl of media 6 six weeks after the first immunization. The remaining 5 mice/group were tested for a DTH response to recombinant DbpA. Following infection, mice were bled 7 and 14 days postinfection. Serum was collected for antibody analysis and blood cultured for the detection of live spirochetes by inoculating 5 ml of BSK II medium with 50 μl of blood from each infected mouse and cultured for 2 weeks at 34° C. as described above. Also on day 14 postinfection, mice were sacrificed and one hind tibiotarsal joint, heart, bladder, and a 3 mm skin biopsy from the ear were aseptically removed and inoculated into separate tubes containing 6 ml of BSK II medium with antibiotics (50 μg/ml rifampacin and 100 μg/ml phosphomycin (Sigma), and incubated for 2 weeks at 34° C. as described above. Evidence of arthritis was determined by histopathological examination of formalin-fixed hind tibiotarsal joint samples. […]
row,Substance,positive blood cultures [%]
1,P5: synthetic 25 amino acid DbpA peptide that maps to the K82 region (AKVRATTVAEKFVIAIEEEATKLKE) [Peptide P5],< 20
2,P4: synthetic 25 amino acid DbpA peptide that maps to the K82 region (DAFKDKKTGSGVSENPFILEAKVRA) [Peptide P4],< 20
3,P9: synthetic 25 amino acid DbpA peptide containing K163 and K170 (REKLQRVHKKNQDTLKKKNTEDSTAKS) [Peptide P9],< 20
